Reference: US20230126447A1, “OCULAR DRUG DEPOT FOR COMPLEMENT-MEDIATED DISORDERS” (priority 2020, published 2023)
The name of at least one read-out is uncertain.

How the values were obtained:
Assay type in all cases: in vivo
[1] = QWBA tissue distribution of [14C] Compound 2, Wistar Hannover rats (PO); conditions: male Wistar Hannover rats, 20 mg/kg PO, 1 h post-dose
Experimental: (§1) The study was conducted to determine the tissue distribution of [^14C] Compound 2-derived radioactivity following a single oral gavage (PO) administration of 20 mg/kg (100 μCi/kg) of [^14C] […] Compound 2 to a male Long-Evans rat using quantitative whole body autoradiography (QWBA).
(§2) A total of ten male Long-Evans and three male Wistar Hannover rats were administered a single PO dose of [^14C] […] One male Long-Evans rat was administered a single IV dose of [^14C] […] (See Table 3). One animal per group per strain was anesthetized by inhalation of isoflurane gas at designated time points post-dose, followed by blood collection via cardiac puncture and euthanasia by isoflurane overdose. Each carcass was then frozen in a dry ice/hexane bath. Blood and plasma samples were assayed for total radioactivity (TRA) concentrations by liquid scintillation counting (LSC). The tissue concentrations of TRA were determined using validated QWBA techniques. Pharmacokinetic parameters of derived radioactivity in blood, plasma, and tissues were calculated, to the extent possible, using Phoenix© WinNonlin® (Version 6.3, Pharsight Corporation; Mountain View, Calif.).

[2] = QWBA tissue distribution of [14C] Compound 2, Long-Evans rats (PO, IV); conditions: male Long-Evans rats, 20 mg/kg PO, 1 h post-dose
Experimental: as §1, §2

[3] = QWBA tissue distribution of [14C] Compound 1, pigmented Long-Evans rats (PO, IV); conditions: male LE rats, 20 mg/kg PO
Experimental: This study was conducted to determine the tissue distribution of drug-related radioactivity following a single oral (PO) (20 mg/kg) or intravenous (IV) (5 mg/kg) administration of [^14C]
Ten adult male pigmented Long-Evans (LE) rats (Group 1), 1 adult male LE rat (Group 2), and 3 albino Wistar Han (WH) rats (Group 3) received a single oral 20 mg/kg (Groups 1 and 3) or IV 5 mg/kg (Group 2) dose of [^14C] […] The formulation was prepared at a target dose of 5 mg (IV) or 20 mg (PO) […]
The carcasses were frozen in hexane dry-ice and stored at or below −20° C. prior to processing for QWBA. Each carcass was embedded, cut into sagittal sections, and mounted for QWBA. […] The lower limit of quantitation was 0.105 μg equiv/g.

[4] = Ocular tissue distribution and pharmacokinetics, 15 mg/kg BID oral, nonpigmented New Zealand White rabbits (Example 7); conditions: male NZW rabbits, Group 4, Day 15, 15 mg/kg/dose BID oral (30 mg/kg/day)
Experimental: For Groups 2 through 4, blood (approximately 2 mL) was collected via a jugular vein using a syringe and needle and was transferred into tubes containing K2EDTA at approximately 12 hours after the a.m. dose on Day 15 from the two animals designated for sacrifice at approximately 240 hours after the a.m. dose on Day 15. For Groups 2 through 4, two animals/group/time point were sacrificed via an overdose of sodium pentobarbital prior to dosing on Day 15 and at approximately 1, 6, 24, 96, 168, and 240 hours after the a.m. dose on Day 15. Blood (approximately 2 mL) was collected from all animals at sacrifice into tubes containing K2EDTA via exsanguination (cardiac puncture). Blood was maintained on wet ice, in chilled cryoracks, or at approximately 5° C. prior to centrifugation to obtain plasma. Centrifugation began within 1 hour of collection (Deviation). Plasma was placed into 96-well tubes with barcode labels. Plasma was maintained on dry ice prior to storage at approximately −70° C. At the time of sacrifice, both eyes were enucleated, and the following tissues were collected. Each eye was flash-frozen in liquid nitrogen for 15 to 20 seconds. The enucleated eye was placed on dry ice or stored at approximately −70° C. for at least 2 hours. Within approximately 3 days, the frozen matrices were collected as right and left eyes for each matrix into the specific tube type listed. […]

Compound	Cmax of radioactivity, blood [1] [μg equiv/g]	Cmax of radioactivity, plasma [1] [μg equiv/g]	Cmax of radioactivity, blood [2] [μg equiv/g]	Cmax of radioactivity, plasma [2] [μg equiv/g]	Time of maximum concentrations (Cmax) in most tissues (37 of 40 tissues) [3] [h]	Cmax ([4]; Choroid-RPE (OU)) [ng/g]	Cmax ([4]; Retina (OU)) [ng/g]
CC(=O)c1nn(CC(=O)N2[C@H](C(=O)Nc3nc(Br)ccc3C)C[C@@]3(C)C[C@@H]23)c2ccc(-c3cnc(C)nc3)cc12 [Compound 2, (1R,3S,5R)-2-(2-(3-acetyl-5-(2-methylpyrimidin-5-yl)-1H-indazol-1-yl)acetyl)-N-(6-bromo-3-methylpyridin-2-yl)-5-methyl-2-azabicyclo[3.1.0]hexane-3-carboxamide]	3.02	4.91	1.66	2.67			
CC(=O)c1nn(CC(=O)N2C[C@H](F)C[C@H]2C(=O)Nc2cccc(Br)n2)c2ccc(-c3cnc(C)nc3)cc12 [Compound 1, (2S,4R)-1-(2-(3-Acetyl-5-(2-methylpyrimidin-5-yl)-1H-indazol-1-yl)acetyl)-N-(6-bromopyridin-2-yl)-4-fluoropyrrolidine-2-carboxamide]					1	296	248
